{"sequences": {"note": "By UniProt entry, the sequences of proteins in these tests, tags left out. Where a name states a change or a piece, a line headed by the entry shows the natural chain unless it says otherwise.", "UniProt P06756": "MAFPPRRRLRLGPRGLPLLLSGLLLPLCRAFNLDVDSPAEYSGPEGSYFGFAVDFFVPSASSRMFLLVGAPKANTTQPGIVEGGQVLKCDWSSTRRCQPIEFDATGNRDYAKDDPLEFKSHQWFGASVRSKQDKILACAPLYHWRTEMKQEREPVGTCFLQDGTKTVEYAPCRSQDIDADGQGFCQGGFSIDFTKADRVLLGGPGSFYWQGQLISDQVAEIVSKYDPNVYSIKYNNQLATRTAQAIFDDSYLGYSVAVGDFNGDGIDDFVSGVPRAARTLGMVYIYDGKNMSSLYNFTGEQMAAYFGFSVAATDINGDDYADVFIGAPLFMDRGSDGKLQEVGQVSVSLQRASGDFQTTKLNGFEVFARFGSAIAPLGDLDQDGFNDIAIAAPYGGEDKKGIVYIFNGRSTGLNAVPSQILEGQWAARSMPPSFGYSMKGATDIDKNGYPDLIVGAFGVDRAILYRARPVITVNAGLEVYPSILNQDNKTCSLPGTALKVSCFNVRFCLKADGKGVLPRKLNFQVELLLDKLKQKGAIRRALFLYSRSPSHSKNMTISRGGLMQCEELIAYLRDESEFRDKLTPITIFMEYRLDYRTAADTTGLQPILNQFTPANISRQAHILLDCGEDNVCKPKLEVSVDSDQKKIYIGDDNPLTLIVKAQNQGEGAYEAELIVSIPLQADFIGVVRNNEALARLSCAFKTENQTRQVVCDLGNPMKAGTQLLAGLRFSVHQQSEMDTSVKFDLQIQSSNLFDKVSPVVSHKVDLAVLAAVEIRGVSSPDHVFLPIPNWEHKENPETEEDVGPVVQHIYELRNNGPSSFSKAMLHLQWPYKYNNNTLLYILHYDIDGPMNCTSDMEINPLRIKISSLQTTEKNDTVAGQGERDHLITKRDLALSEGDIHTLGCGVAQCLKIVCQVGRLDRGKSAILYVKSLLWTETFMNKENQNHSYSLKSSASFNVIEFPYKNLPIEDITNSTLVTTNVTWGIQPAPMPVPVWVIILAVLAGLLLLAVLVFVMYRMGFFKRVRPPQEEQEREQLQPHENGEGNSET", "UniProt P18564": "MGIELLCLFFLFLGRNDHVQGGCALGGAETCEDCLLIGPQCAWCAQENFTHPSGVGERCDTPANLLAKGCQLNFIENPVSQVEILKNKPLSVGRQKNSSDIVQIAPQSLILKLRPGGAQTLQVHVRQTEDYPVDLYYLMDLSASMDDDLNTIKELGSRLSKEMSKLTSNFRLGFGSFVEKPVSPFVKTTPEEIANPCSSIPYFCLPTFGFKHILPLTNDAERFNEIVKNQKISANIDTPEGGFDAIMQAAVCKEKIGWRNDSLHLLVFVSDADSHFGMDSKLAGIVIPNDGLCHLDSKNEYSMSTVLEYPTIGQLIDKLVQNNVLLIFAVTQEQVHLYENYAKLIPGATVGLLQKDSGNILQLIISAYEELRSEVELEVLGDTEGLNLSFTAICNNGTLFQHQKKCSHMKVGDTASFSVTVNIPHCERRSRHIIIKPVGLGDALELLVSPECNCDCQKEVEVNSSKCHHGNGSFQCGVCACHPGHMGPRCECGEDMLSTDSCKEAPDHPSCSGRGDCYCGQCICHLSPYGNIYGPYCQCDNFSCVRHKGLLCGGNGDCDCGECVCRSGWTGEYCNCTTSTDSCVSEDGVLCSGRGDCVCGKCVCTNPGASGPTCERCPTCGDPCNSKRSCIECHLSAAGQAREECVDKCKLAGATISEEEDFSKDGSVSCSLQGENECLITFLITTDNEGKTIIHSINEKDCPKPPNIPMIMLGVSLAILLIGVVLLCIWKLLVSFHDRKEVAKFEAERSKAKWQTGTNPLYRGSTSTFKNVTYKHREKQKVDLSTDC"}, "source": "patent US20200131227A1", "about": "“POLYPEPTIDE WITH TUMOUR BINDING ACTIVITY” (RUPRECHT-KARLS-UNIVERSITÄT HEIDELBERG, priority 2017, published 2020)", "binders": {"B1": {"name": "SFLAP1 (peptide)", "peptide": "GRCTRRGDLAFICYPD", "modifications": "disulfide bond between the two Cys; 125I on the tyrosine"}}, "target": "integrin αvβ6 (ITGαvβ6) as expressed on human carcinoma cell lines and tumor tissue sections (human) (UniProt P06756+P18564)", "experiment": "uptake of 125I-labelled peptides on HNSCC cell lines, 60 min", "note": "No constants are given. Whether binding was seen depends on the method and setting. Some entries that bind do so weakly or less than the wild type."}
{"binder": "B1", "values": [{"measurement": "binding", "value": "binds"}]}
